Results are given in words; binding and its absence hold for the method and conditions named. Some binding calls cover weakened binding; strength is not graded here.
Biological target: T1, full-length human B7-H3 (UniProtKB-Q5ZPR3, 1 aa-534 aa) transiently expressed on HEK293 cells (human) (UniProt Q5ZPR3)
T1 sequence (looked up): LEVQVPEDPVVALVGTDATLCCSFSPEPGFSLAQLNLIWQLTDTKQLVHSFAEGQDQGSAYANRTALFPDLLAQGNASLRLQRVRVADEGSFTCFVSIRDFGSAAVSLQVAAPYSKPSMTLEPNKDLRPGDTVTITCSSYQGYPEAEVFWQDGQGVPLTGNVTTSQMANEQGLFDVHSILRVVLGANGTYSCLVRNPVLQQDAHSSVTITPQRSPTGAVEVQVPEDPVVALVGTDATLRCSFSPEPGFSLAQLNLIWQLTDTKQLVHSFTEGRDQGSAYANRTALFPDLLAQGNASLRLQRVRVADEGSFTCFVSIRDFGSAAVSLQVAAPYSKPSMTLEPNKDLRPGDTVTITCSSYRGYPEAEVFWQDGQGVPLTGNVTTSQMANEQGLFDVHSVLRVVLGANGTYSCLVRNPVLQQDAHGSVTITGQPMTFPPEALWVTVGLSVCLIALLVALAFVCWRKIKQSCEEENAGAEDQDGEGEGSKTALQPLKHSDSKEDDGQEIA
Assay: FACS on 293/hB7-H3 cells, 1, 0.1 and 0.01 µg/ml

B1: ch17A3 (antibody, human IgG1, V domains shown)
VH: QVQLQQSGPELVRPGVSVKISCKGSGYTFTDYALHWVKQSHAKSPQWIGLINTYSSNTNYNQKFKDKATMTVDKSSSTAYMELARLTSEDSAIYYCARGITAVVGTRYYAMDYWGQGTSVTVSS
VL: NIVLTQSPTTLSVTPGDTVSLSCRASQSISNNLHWYQQRSHESPRLIIKYTSQNISGIPSRFSGSGSGTDFTLSINSVETEDFGMYFCQQSYSWPLTFGAGTKLELKR
In the case of B1, the binding is reported as “binds”.

From patent publication US20250269047A1
